Measured values published in USRE48461E1, “Modulation of androgen receptor expression” (Ionis Pharmaceuticals, Inc., priority 2012, dated 2021).
Some entries share one result that the patent states for a list of compounds. Oligonucleotides are written 5' to 3', each unit as a sugar letter and its base; * is a phosphorothioate linkage, no mark a phosphodiester; rarer units and linkages stand in square brackets, end groups in braces. Plain capitals give the bases only. e = 2'-O-(2-methoxyethyl) (MOE); k = constrained ethyl (cEt); [5mC] = 5-methylcytosine; d = 2'-deoxy (DNA)

System: AR mRNA
Assay: Antisense inhibition of human AR in HuVEC cells, single concentration (electroporation, qRT-PCR RTS3559)
Type: cell-based
Conditions: summary lists of ISIS IDs (b207-b215); determined as described in Example 1
Protocol: Antisense oligonucleotides were designed targeting an AR nucleic acid and were tested for their effects on AR mRNA in vitro. The antisense oligonucleotides were tested in a series of experiments that had similar culture conditions. […] Human primer probe set RTS3559 (forward sequence [NT], designated herein as SEQ ID NO: 9; reverse sequence [NT], designated herein as SEQ ID NO: 10; probe sequence [NT], designated herein as SEQ ID NO: 11) was used to measure mRNA levels. AR mRNA levels were adjusted according to total RNA content, as measured by RIBOGREEN®. […] A total of 155 oligonucleotides were tested. Additional antisense oligonucleotides were designed targeting an AR nucleic acid and were tested for their effects on AR mRNA in vitro. […] Human primer probe set RTS3559 was used to measure mRNA levels. AR mRNA levels were adjusted according to total RNA content, as measured by RIBOGREEN®. […] A total of 82 oligonucleotides were tested. Additional antisense oligonucleotides were designed targeting an AR nucleic acid and were tested for their effects on AR mRNA in vitro. […] Human primer probe set RTS3559 was used to measure mRNA levels. AR mRNA levels were adjusted according to total RNA content, as measured by RIBOGREEN®. […] A total of 40 oligonucleotides were tested. Additional antisense oligonucleotides were designed targeting an AR nucleic acid and were tested for their effects on AR mRNA in vitro. […] Human primer probe set RTS3559 was used to measure mRNA levels. AR mRNA levels were adjusted according to total RNA content, as measured by RIBOGREEN®. […] A total of 75 oligonucleotides were tested. Additional antisense oligonucleotides were designed targeting an AR nucleic acid and were tested for their effects on AR mRNA in vitro. […] Human primer probe set RTS3559 was used to measure mRNA levels. AR mRNA levels were adjusted according to total RNA content, as measured by RIBOGREEN®. […] A total of 616 oligonucleotides were tested. Additional antisense oligonucleotides were designed targeting an AR nucleic acid and were tested for their effects on AR mRNA in vitro. […] Human primer probe set RTS3559 was used to measure mRNA levels. AR mRNA levels were adjusted according to total RNA content, as measured by RIBOGREEN®. […] A total of 385 oligonucleotides were tested.

Row | Substance | inhibition of an androgen receptor mRNA
1 | 560132 (antisense kG*kT*kT*dG*dA*dT*dT*dT*dA*dA*dT*dG*kG*kT*kT*eG) [compound 560132] | ≥ 50%
2 | 560133 (antisense kA*kT*kG*dG*dT*dT*dG*dA*dT*dT*dT*dA*kA*kT*kG*eG) [compound 560133] | ≥ 50%
3 | 569215 (antisense kT*kG*kG*dT*dT*dG*dA*dT*dT*dT*dA*dA*kT*kG*kG*eT) [compound 569215] | ≥ 50%
4 | 569220 (antisense eA*kT*kG*kG*dT*dT*dG*dA*dT*dT*dT*dA*kA*kT*kG*eG) [compound 569220] | ≥ 50%
5 | 569223 (antisense eG*eT*kT*kG*kA*dT*dT*dT*dA*dA*dT*dG*dG*kT*kT*kG) [compound 569223] | ≥ 50%
6 | 569227 (antisense eT*eG*kA*kT*kT*dT*dA*dA*dT*dG*dG*dT*kT*kG*k[5mC]*eA) [compound 569227] | ≥ 50%
7 | 569229 (antisense eG*eT*kT*kG*kA*dT*dT*dT*dA*dA*dT*dG*kG*kT*kT*eG) [compound 569229] | ≥ 50%
8 | 569238 (antisense eG*kT*kT*kG*dA*dT*dT*dT*dA*dA*dT*kG*kG*kT*eT*eG) [compound 569238] | ≥ 50%
9 | 583559 (antisense kA*kG*kT*d[5mC]*dT*dT*dT*dA*dG*d[5mC]*dA*dG*d[5mC]*kT*kT*kT) [compound 583559] | ≥ 50%
10 | 583567 (antisense kG*k[5mC]*kA*d[5mC]*dT*dT*dT*d[5mC]*d[5mC]*dT*dT*dG*d[5mC]*kT*kT*k[5mC]) [compound 583567] | ≥ 50%
11 | 583608 (antisense kG*k[5mC]*kT*dA*dG*d[5mC]*dT*d[5mC]*dG*d[5mC]*d[5mC]*d[5mC]*dG*k[5mC]*kT*k[5mC]) [compound 583608] | ≥ 50%
12 | 583609 (antisense k[5mC]*kA*kG*d[5mC]*dT*dA*dG*d[5mC]*dT*d[5mC]*dG*d[5mC]*d[5mC]*k[5mC]*kG*k[5mC]) [compound 583609] | ≥ 50%
13 | 583613 (antisense kG*k[5mC]*kA*dA*dT*dG*dT*dG*d[5mC]*dA*dG*d[5mC]*dT*kA*kG*k[5mC]) [compound 583613] | ≥ 50%
14 | 583635 (antisense k[5mC]*kT*kG*dG*d[5mC]*dT*d[5mC]*d[5mC]*dG*d[5mC]*dA*d[5mC]*dT*k[5mC]*kG*kG) [compound 583635] | ≥ 50%
15 | 583638 (antisense kT*kG*kA*dT*d[5mC]*dT*d[5mC]*dT*dG*dG*d[5mC]*dT*d[5mC]*k[5mC]*kG*k[5mC]) [compound 583638] | ≥ 50%
16 | 583662 (antisense kA*kG*kA*dA*dG*dA*d[5mC]*dA*d[5mC]*dA*d[5mC]*dG*dG*kT*kG*kG) [compound 583662] | ≥ 50%
17 | 583834 (kA*kG*k[5mC]*dT*dG*dT*dT*d[5mC]*d[5mC]*d[5mC]*d[5mC]*dT*dG*kG*kA*k[5mC]; antisense) [compound 583834] | ≥ 50%
18 | 583919 (kG*kT*kA*dG*dT*d[5mC]*dG*d[5mC]*dG*dA*d[5mC]*dT*d[5mC]*kT*kG*kG; antisense) [compound 583919] | ≥ 50%
19 | 584263 (kT*kA*kG*dG*dG*dT*dT*dT*dG*dG*dT*d[5mC]*dA*kG*kA*kA; antisense) [compound 584263] | ≥ 50%
20 | 584269 (k[5mC]*k[5mC]*kT*dT*dA*dT*dG*dG*dA*dT*dG*d[5mC]*dT*kG*k[5mC]*kT) [compound 584269] | ≥ 50%
21 | 584329 (kG*kG*kT*dT*dA*dT*dG*dG*dT*dT*d[5mC]*dT*dG*kT*k[5mC]*kT; antisense) [compound 584329] | ≥ 50%
22 | 584495 (kA*kT*kG*dG*dT*dT*dG*dT*d[5mC]*d[5mC]*dT*dG*dT*kA*k[5mC]*kA; antisense) [compound 584495] | ≥ 50%
23 | 585271 (eA*kA*kG*dT*dT*dG*dT*dA*dG*dT*dA*dG*dT*k[5mC]*kG*e[5mC]) [compound 585271] | ≥ 50%
